PubChem BioAssay AID1259405 – NCATS | 2018
Here is an unselected part of about 50,000 reagents tested. In the full data, about 4,000 (8%) got an active call. 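Mouse siRNA library applied to hamster cells; one well for each siRNA.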 A number with no mark means an inactive call. The numbers tell different reagents against one gene apart.

Assay: 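Knock-downs that lift recombinant protein yield in hamster ovary cells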 (primary screen)
System: Chinese hamster CHO-K1 ovary cells with stable secreted eGFP expression
Knock-down reagent: single siRNA against mouse genes, 0.8 pmol siRNA per well (2 µl of 400 nM stock)
Time to read-out: 3 days
Detection: 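Per-well intracellular GFP measured by laser scanning cytometry, plus viability from ATP luminescence, each relative to plate median of non-targeting control wells, in %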
Reading the numbers: GFP, % of control: higher = more GFP per well, higher productivity; viability (ATP), % of control: higher = more viable cells (more ATP)
Hit rule: 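a knock-down is called active if GFP reaches 120% or more of non-targeting control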

no.	gene	siRNA no.	GFP, % of control	viability (ATP), % of control
1	Tdrd1	1	101	101
2	Tdrd1	2	89.5	68.6
3	Tdrd1	3	87.6	82.2
4	Pmis2	1	76.4	84
5	Pmis2	2	81.2	72.5
6	Pmis2	3	67.1	92
7	Npepps	1	69.5	59.8
8	Npepps	2	49.5	43.5
9	Npepps	3	67	68.5
10	Tgif1	1	46.5	48
11	Tgif1	2	72.8	78.9
12	Tgif1	3	59.3	80.4
13	Spryd4	1	152 (active)	70
14	Spryd4	2	79.5	33.4
15	Spryd4	3	74.6	90.6
16	Rrp1b	1	65.2	69.1
17	Rrp1b	2	46.6	51.7
18	Rrp1b	3	59.1	50.9
19	Des	1	100	74.8
20	Des	2	65.7	73.6
21	Des	3	71.8	91.1
22	Ctsb	1	75.5	81.1
23	Ctsb	2	77.1	43.8
24	Ctsb	3	95	61.9
25	Pyroxd1	1	43.6	41.4
26	Pyroxd1	2	62.5	85
27	Pyroxd1	3	98.5	98.3
28	Rfc1	1	87.8	91.4
29	Rfc1	2	80	98.8

Ordered by “GFP, % of control” (low to high): 5 of the entries above
gene	siRNA no.	GFP, % of control	viability (ATP), % of control
Tgif1	1	46.5	48
Tgif1	3	59.3	80.4
Npepps	3	67	68.5
Tgif1	2	72.8	78.9
Spryd4	1	152 (active)	70

Additional records:
no.	gene	siRNA no.	GFP, % of control	viability (ATP), % of control
30	Lypd10	1	109	147
31	Lypd10	2	88.2	58.6
32	Lypd10	3	126 (active)	149
33	Nptn	1	51.2	81.2
34	Nptn	2	66.5	80.7
35	Nptn	3	21.6	81.3
36	Gad2	1	53.5	75.5
37	Gad2	2	53.2	70.1
38	Gad2	3	81.9	70.7
39	Aldoa	1	155 (active)	52.5
40	Aldoa	2	119	54.1
41	Aldoa	3	87.3	87
42	Gm5941	1	76.7	71.6
43	Gm5941	2	75.7	81.6
44	Gm5941	3	60.1	80.7
45	Calcrl	1	26.7	41.3
46	Calcrl	2	113	82.5
47	Calcrl	3	101	61
48	Myt1	1	59.1	56.4
49	Myt1	2	41.9	70.2
50	Myt1	3	83.8	98.3
51	Glud1	1	65	81.7
52	Glud1	2	76.2	60.4
53	Glud1	3	86.9	72.8
54	Mrps5	1	127 (active)	103
55	Mrps5	2	114	81.1
56	Mrps5	3	166 (active)	73.4
57	Cwc25	1	68.4	88.8
58	Cwc25	2	58.7	83.3
59	Cwc25	3	115	68.4
